Assay results as given in patent US6468985B1, “Retinoblastoma protein-interacting zinc finger proteins” (The Burnham Institute, priority 1994, dated 2002).
These are yes or no findings as the source states them, for the method shown. Some results given as binding are weak or reduced against the parent protein; the word gives no strength.

Molecular target: T1, hypophosphorylated Rb (pRb) from HT1080 cell extract (UniProt P06400)
T1 sequence (hypophosphorylated form, looked up): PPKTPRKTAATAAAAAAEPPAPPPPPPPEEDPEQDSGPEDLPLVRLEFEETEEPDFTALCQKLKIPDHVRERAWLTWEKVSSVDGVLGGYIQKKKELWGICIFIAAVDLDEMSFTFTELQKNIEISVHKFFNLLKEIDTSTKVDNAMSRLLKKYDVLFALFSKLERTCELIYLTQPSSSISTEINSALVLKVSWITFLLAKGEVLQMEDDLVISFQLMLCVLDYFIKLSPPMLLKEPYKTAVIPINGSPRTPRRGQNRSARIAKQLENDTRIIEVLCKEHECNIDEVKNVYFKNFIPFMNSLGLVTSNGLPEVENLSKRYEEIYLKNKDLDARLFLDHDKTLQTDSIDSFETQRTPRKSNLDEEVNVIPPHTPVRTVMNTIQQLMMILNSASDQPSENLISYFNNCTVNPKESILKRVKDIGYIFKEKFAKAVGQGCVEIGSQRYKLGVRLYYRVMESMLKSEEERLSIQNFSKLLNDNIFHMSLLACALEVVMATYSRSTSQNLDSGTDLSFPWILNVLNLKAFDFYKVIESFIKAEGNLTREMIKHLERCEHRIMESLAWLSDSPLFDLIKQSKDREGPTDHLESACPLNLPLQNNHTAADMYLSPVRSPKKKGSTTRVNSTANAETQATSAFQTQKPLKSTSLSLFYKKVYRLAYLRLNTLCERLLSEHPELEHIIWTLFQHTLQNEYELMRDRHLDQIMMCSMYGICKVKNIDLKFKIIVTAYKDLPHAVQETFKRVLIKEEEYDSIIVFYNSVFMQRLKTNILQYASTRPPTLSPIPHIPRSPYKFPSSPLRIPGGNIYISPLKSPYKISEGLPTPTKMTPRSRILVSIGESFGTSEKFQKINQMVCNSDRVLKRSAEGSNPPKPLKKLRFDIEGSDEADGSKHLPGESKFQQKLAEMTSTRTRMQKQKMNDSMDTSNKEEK
Test: competition against GST-RIZ (215-462) for Rb in HT1080 extract

“E1A protein from a cell lysate of 293 cells stably transfected to express E1A (from UniProt P03255 1-289)” was tested, and the binding was “binds”.
